# Reference: the supplement of paper PMC3334620
# Whole data set: some 33,000 sequences, median “E-score (-0.5 to 0.5)” near -8e-05, cut for the highest 2% near 0.23. The list shows a part of the results.
# Biological target: T1, Nrg2 (UniProt P38082)
# T1 sequence: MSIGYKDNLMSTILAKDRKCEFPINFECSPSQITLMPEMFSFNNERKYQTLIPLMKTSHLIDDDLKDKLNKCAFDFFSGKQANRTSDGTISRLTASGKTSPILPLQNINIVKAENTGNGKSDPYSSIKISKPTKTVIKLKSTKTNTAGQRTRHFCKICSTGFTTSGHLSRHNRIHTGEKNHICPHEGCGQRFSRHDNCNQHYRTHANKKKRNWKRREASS
# Experiment: PBM E-score (8-mer binding enrichment) (E-score (-0.5 to 0.5)); higher = stronger / more preferred TF binding
# Conditions: protein concentration: 100 nM; construct: GST-full length
# Procedure, shortened: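 E-scores (a modified Wilcoxon-Mann-Whitney statistic) were assigned by the Universal PBM Analysis Suite to every ungapped eight-base word pooled with its reverse complement. The input came from universal all-10-mer Agilent arrays made double-stranded by primer extension and probed with GST-tagged yeast transcription factors at about 100-200 nM. Fluorescent anti-GST detected bound protein, and masliner normalised the scans.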
row,Sequence,PBM E-score
1,AGATCGAA,0.0979
2,CTCTCGCC,-0.21
3,GGCTGAAA,0.0394
4,AGTGGCCG,-0.0882
5,CGTGACCC,-0.0715
6,GTTTCTTA,-0.00106
7,CCCATCGC,-0.0174
8,ACGGTTAT,-0.12
9,CAATGAGA,-0.0241
10,ACCGTCCT,-0.0965
11,CCTTGGAG,-0.0117
12,AGGTAGTG,-0.0967
13,AACGATTG,0.113
14,AAATTGGA,0.208
15,ACCAGGTA,-0.214
16,GAGAAACA,0.121
17,CGGAGGGA,-0.139
18,GCAGCGGC,-0.181
19,AAAGCCGC,-0.114
20,ATCCCTAA,-0.0553
21,CGGCCAAC,0.0106
22,GAGTGTGA,0.0622
23,CACACGTA,-0.0612
24,CCGTTGCG,0.0657
25,GCATCCCC,-0.0167

row,Sequence,PBM E-score
1,ACGTGTAG,-0.219
2,ACCACGTG,0.038
3,AACGGGAA,-0.00212
4,GCATACAA,0.213
5,ACGGCGAG,0.0517
6,GGACTCTA,-0.0907
7,ATATCGGG,0.036
8,TCAAATGA,-0.0989
9,AATGAAGT,0.23
10,GAATAAAA,0.0232
11,AGTCACCC,-0.14
12,CGTCGGTA,-0.343
13,AAACATGG,5e-05
14,ATGCACAA,0.221
15,AGGGCAGC,-0.171
16,ATATGATG,0.0173
17,GTTGTAAA,-0.129
18,TCCTAAGA,-0.192
19,GCTTGATA,0.184
20,ACCAGCGC,0.0159
21,TGTGATAA,0.067
22,AAGTGCAA,0.123
23,CACATGGA,-0.14
24,TGATTCAA,-0.011
25,CAACCGGG,-0.0115

row,Sequence,PBM E-score
1,TCGCCCAA,0.0172
2,ATGAATAC,0.0666
3,ACGCGCGG,0.192
4,ACAATCGA,0.019
5,ACAAAGTG,0.195
6,TATACTGA,0.261
7,CTCATAGA,-0.061
8,CGTTTGCC,0.0609
9,AGATAATG,-0.00061
10,GCCATCGC,-0.136
11,ATGAGGAC,-0.146
12,CACGCCGG,-0.0331
13,TGAAAAAA,0.145
14,ATTATTAA,0.238
15,GCATCACC,-0.0571
16,TTCCTAAA,-0.132
17,GGTGACAA,0.15
18,AGAAGTCC,-0.218
19,CCGGCCGG,0.165
20,CTGAACGC,-0.0491
21,CAATACGC,0.057
22,AGGTGAGG,0.0309
23,GCCCTGCC,0.129
24,CCCGGCAA,-0.0312
25,AGCGCGCT,0.187

# Some of the entries so far, bar-delimited.
row | Sequence | PBM E-score
19 | CCGGCCGG | 0.165
20 | CTGAACGC | -0.0491
21 | CAATACGC | 0.057
22 | AGGTGAGG | 0.0309
23 | GCCCTGCC | 0.129

# Following part

row,Sequence,PBM E-score
1,GCTTGCCA,-0.051
2,TCGGCGAA,-0.0259
3,ACTACTAG,0.166
4,AGGTATTA,0.107
5,ATTAAGTC,-0.00856
6,CATAATCG,0.172
7,AAGAGGTG,0.026
8,CTACCGCA,-0.133
9,ACTCTAAA,0.101
10,CTGAAGTC,-0.00958
11,CGGGTACC,-0.0855
12,ATCCGTCC,-0.0738
13,GAAACTTC,0.146
14,ATTTCCAC,0.255
15,ATTAAAGG,0.16
16,AGCTCTTG,0.0917
17,ACGAACCG,-0.00219
18,CCCTTACC,0.00243
19,ACGGCGGC,-0.045
20,AGTGCTGA,-0.0594
21,AACAACGC,0.0965
22,CGGTCCAG,-0.183
23,ATATATGA,0.0746
24,AATATTAA,0.295
25,AGCCTAAT,-0.0949

row,Sequence,PBM E-score
1,GACGTACC,-0.108
2,CTTTCGTA,0.0684
3,ACGCTAGG,-0.266
4,GCCAGGCA,-0.13
5,GTATGATA,0.281
6,CACCCTTA,0.147
7,ACGTCAAA,-0.0307
8,ACGCCATG,-0.0604
9,AAGCTTGG,-0.101
10,AACCACCT,0.0907
11,CGCTGGTA,-0.274
12,AGGAGGAA,-0.282
13,AACGATCG,0.0433
14,AACTAGTC,0.0549
15,ATACTGGG,-0.119
16,ACCCAAGT,0.0825
17,AGCGTGAC,-0.0668
18,CAGGAACC,0.00077
19,CTCTTCCC,-0.189
20,CACGTCAA,-0.128
21,AATTGGTC,0.216
22,AGATCTAT,-0.0448
23,ATATCCAT,0.108
24,AGGGGTCC,0.316
25,ACCGTTTG,-0.0384

row,Sequence,PBM E-score
1,CGCCCAGA,-0.152
2,TGAGCGCA,0.0359
3,AGGGCCCC,0.0359
4,CCTGGCGA,0.00579
5,TACCGTCA,0.00993
6,AAAGTTGC,0.0327
7,TAGCTCAA,-0.091
8,AAGGGGGA,-0.218
9,AGGTCTTG,-0.138
10,CGGAGGAA,-0.3
11,TGGCAACA,0.0565
12,ATTGTATA,0.204
13,CAACAGGC,-0.129
14,AATCCAGT,0.208
15,TATTTCAA,0.102
16,CCTTAGGA,-0.062
17,CGATCATC,0.0521
18,TTGCACAA,0.0407
19,AGGCTAGG,-0.245
20,AAGGCGGT,-0.159
21,AGCATGTG,0.0722
22,TACGCGAA,0.188
23,CATGATGA,0.0818
24,AAGTATCG,0.0639
25,CCCAGCCC,-0.135

row,Sequence,PBM E-score
1,CCGCTAAA,0.0162
2,GGATCCAA,0.0813
3,GCATTGCC,-0.0164
4,CGCGGAAG,0.005
5,GGAACGTA,-0.0733
6,AATAACTC,0.109
7,AATAGTTC,0.0571
8,ACCGGTGC,-0.225
9,AATTAAAT,0.0221
10,CCATTTCC,0.119
11,CAGCCGAG,-0.0487
12,GCGTTTTA,0.00611
13,CACGATAC,-0.129
14,AATAATAA,0.0987
15,GTCCAAGA,-0.142
16,TCACGCCA,0.0403
17,AAGTACCA,-0.0295
18,AGACTCCA,-0.222
19,TAGTTGAA,0.0345
20,TATAGGCA,-0.0788
21,CCACGTTC,-0.0538
22,ATAACAGC,0.00153
